Measured values from the supplement of paper PMC10849652.
The list shows a part of the results.

Protein sequences, listed by entry. Tags and fused reporters are not part of them. Lines headed by an entry give the natural chain unless they say otherwise; changes in a name come on top.
UniProt Q9NYP7: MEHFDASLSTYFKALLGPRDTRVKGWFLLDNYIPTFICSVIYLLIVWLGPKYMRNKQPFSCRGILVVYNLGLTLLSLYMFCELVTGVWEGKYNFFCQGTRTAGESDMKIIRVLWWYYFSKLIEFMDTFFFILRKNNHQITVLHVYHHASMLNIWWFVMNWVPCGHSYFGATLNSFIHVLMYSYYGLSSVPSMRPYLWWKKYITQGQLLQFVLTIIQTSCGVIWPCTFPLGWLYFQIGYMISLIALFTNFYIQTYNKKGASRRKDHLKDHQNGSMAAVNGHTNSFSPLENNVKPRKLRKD
UniProt Q5VTE0, whole entry, looked up: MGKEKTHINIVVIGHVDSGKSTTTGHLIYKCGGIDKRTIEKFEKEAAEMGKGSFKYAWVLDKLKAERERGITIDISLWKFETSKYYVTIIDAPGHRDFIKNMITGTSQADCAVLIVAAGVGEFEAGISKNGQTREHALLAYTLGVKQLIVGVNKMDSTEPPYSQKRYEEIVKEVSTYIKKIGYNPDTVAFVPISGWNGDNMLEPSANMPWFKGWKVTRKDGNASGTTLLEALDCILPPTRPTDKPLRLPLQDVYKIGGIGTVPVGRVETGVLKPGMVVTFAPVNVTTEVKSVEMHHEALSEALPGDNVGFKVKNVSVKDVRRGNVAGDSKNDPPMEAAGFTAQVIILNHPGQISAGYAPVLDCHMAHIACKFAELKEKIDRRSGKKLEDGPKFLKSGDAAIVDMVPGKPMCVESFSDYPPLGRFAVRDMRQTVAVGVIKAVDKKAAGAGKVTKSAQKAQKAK
UniProt O94919: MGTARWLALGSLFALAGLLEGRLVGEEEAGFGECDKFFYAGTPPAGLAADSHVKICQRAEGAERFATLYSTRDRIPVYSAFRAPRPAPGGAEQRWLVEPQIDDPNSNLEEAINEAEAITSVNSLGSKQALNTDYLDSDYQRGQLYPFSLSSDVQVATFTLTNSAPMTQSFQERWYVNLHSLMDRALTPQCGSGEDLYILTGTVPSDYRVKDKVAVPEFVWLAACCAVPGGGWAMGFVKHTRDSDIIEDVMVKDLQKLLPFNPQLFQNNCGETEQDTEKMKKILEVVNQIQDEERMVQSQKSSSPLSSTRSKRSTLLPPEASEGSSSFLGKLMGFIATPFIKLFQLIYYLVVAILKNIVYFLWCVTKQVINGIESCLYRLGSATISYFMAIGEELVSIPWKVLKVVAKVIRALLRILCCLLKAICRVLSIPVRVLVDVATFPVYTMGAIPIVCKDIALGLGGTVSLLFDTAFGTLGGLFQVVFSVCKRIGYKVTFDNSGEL
UniProt P05198, whole entry, looked up: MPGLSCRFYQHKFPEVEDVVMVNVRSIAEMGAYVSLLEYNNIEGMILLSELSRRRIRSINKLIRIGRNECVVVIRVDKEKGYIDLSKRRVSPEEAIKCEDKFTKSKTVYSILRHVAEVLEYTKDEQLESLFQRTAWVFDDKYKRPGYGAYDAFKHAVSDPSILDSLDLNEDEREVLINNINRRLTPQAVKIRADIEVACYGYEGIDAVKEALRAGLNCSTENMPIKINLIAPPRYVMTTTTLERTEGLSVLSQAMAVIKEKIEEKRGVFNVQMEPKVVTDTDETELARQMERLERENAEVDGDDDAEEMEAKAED
UniProt P24534: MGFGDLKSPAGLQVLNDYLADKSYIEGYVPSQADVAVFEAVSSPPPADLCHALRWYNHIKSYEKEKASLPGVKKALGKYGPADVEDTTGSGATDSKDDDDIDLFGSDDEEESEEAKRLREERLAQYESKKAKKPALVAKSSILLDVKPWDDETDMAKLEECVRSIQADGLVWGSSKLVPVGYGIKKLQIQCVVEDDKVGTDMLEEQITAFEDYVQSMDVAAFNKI
UniProt P38919, whole entry, looked up: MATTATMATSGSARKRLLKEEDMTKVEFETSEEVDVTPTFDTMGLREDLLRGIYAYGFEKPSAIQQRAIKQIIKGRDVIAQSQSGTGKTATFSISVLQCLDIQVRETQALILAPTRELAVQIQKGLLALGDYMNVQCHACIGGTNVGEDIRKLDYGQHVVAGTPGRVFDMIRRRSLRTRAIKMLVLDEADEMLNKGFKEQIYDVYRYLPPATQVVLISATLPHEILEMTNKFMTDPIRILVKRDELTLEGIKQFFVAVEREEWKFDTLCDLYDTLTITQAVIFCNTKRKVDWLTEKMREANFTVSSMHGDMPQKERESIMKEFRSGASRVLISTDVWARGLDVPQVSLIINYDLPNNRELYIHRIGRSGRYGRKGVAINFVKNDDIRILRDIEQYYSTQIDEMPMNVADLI
UniProt Q9NQZ7: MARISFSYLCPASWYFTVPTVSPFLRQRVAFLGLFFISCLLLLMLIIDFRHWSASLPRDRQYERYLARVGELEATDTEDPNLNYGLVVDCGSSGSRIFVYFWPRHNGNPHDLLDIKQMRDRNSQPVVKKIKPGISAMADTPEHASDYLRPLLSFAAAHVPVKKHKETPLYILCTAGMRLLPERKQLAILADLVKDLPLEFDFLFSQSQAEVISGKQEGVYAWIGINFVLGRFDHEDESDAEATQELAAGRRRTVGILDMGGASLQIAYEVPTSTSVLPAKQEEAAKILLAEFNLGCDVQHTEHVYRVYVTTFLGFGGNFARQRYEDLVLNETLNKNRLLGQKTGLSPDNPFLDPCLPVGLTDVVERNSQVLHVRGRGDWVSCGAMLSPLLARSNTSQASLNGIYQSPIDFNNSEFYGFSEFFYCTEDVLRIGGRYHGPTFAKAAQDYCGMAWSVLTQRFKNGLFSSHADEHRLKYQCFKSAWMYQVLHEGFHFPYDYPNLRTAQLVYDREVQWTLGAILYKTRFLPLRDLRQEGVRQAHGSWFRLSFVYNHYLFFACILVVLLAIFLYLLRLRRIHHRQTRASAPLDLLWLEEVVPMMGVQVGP
UniProt P26641, whole entry, looked up: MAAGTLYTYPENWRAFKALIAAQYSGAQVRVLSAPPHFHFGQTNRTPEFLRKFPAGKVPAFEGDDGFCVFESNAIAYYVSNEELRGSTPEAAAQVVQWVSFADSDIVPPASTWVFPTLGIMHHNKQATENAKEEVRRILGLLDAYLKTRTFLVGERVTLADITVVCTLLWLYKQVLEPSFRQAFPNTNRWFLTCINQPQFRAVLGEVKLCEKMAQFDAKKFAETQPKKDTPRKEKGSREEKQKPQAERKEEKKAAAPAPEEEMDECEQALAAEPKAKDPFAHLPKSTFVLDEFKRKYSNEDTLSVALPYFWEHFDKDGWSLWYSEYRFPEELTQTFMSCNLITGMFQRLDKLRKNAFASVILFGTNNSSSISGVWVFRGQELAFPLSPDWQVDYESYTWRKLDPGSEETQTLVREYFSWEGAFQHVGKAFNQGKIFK
UniProt Q8N6R0: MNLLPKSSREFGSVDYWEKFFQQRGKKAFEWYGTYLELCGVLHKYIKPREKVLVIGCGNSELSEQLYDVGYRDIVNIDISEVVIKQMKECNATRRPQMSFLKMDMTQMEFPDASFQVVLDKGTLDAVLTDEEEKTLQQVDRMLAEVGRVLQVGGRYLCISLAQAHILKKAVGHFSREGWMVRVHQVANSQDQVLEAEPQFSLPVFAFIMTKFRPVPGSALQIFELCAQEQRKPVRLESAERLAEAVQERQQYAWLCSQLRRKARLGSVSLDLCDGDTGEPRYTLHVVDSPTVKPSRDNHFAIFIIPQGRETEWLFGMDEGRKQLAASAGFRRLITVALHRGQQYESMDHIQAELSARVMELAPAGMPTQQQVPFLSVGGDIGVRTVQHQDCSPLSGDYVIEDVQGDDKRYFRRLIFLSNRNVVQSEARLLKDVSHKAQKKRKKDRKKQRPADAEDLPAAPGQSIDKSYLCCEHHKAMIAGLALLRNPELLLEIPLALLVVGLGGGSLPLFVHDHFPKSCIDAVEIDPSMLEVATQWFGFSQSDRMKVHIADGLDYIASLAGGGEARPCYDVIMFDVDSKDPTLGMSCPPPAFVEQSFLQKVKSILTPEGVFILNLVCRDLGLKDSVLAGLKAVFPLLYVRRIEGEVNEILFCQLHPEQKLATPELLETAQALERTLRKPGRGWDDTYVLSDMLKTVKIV
UniProt P26378: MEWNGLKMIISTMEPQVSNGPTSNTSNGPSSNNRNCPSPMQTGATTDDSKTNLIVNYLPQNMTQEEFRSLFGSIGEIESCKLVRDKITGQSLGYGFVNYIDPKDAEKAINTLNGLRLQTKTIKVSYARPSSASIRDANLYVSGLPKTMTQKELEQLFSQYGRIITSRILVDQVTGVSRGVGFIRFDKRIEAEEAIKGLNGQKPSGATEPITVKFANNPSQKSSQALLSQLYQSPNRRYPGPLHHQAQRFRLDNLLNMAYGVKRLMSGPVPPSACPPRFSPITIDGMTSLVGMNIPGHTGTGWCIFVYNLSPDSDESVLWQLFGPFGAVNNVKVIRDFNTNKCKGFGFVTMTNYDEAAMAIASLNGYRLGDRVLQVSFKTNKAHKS
UniProt P06730, whole entry, looked up: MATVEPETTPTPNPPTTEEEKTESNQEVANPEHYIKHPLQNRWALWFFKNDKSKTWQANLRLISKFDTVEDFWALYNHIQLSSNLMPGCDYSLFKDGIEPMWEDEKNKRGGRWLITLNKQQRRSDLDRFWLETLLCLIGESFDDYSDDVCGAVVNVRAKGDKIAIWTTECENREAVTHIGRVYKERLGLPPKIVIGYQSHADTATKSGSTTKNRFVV
UniProt Q9Y227: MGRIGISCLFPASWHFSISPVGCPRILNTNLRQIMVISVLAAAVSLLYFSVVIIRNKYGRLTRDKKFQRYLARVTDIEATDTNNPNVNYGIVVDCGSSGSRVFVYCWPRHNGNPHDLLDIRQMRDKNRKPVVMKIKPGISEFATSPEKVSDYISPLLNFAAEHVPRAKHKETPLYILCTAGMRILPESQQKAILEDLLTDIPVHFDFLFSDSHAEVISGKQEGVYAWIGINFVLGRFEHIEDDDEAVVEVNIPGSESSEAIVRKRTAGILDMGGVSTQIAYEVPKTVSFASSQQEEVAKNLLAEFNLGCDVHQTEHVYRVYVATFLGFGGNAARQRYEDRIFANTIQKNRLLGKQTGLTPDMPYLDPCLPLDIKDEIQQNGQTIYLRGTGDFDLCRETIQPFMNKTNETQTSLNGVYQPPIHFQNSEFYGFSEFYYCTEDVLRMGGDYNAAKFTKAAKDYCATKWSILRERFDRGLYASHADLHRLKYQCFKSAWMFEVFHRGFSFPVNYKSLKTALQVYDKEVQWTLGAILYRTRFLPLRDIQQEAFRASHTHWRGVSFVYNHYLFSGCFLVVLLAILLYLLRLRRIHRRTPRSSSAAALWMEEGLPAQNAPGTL
UniProt Q9H0I2: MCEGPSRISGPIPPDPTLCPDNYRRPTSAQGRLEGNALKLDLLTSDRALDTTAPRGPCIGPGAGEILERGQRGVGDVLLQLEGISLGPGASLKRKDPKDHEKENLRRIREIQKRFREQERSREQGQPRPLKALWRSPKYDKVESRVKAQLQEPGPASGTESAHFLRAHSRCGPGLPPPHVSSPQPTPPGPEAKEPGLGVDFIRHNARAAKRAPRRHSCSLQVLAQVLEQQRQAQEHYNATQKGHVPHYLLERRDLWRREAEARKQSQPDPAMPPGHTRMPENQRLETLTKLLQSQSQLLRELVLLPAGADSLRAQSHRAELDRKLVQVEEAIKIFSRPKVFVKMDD
UniProt Q14241: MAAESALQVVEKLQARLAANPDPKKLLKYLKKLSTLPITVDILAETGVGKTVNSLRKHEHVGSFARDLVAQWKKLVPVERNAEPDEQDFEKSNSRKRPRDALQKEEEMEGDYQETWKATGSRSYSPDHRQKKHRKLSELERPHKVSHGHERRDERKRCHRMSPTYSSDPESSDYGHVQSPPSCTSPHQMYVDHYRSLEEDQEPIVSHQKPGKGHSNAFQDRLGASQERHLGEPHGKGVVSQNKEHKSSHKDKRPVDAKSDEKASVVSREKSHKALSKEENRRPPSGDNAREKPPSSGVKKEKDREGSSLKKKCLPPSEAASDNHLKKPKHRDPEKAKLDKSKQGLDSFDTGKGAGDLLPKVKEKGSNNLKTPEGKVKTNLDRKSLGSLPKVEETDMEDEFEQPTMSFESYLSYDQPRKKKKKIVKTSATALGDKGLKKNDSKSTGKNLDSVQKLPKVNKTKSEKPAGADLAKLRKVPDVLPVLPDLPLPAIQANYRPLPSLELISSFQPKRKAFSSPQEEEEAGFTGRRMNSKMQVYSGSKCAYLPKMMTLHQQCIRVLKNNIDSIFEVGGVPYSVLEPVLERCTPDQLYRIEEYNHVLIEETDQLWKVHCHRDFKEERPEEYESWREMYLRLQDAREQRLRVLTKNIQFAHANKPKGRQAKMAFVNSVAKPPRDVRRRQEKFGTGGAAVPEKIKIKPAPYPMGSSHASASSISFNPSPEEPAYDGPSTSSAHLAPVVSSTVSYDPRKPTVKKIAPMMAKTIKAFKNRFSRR
UniProt Q9BW60: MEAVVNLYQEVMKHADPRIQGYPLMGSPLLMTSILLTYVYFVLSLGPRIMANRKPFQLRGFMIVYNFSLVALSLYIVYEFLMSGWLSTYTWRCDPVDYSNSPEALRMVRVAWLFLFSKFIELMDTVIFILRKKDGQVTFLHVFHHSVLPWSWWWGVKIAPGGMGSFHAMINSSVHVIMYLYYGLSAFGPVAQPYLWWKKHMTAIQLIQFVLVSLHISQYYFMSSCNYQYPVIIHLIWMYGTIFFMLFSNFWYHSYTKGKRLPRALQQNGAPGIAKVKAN

How the values were obtained:
Test in all cases: log2 fold change, soluble protein after heating vs DMSO (PISA); higher = thermal stabilisation; K562 cells, 10 uM, 30 min; active = over 0.2 and 3.5 SD of the protein, either way, in both replicates (recomputed)
[1] = compound: CC[C@@H]1C(=O)N(C)c2cnc(Nc3ccc(C(=O)NC4CCN(C)CC4)cc3OC)nc2N1C1CCCC1
In short: (§1)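 K562 cells at 2×10^6 cells/mL were treated with 10 μM compound for 30 min. Aliquots were heated for 3 min across 48°C-58°C, pooled, and extracted in PBS with 0.5% NP-40 at 4°C; soluble protein was the supernatant after 21,000xg for 90 min. Soluble protein was quantified by TMTpro 16plex LC-MS/MS with channel sums equalised, and reported as log2 fold change in thermal stability against DMSO controls, with values from duplicates.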

volasertib = compound: CC[C@@H]1C(=O)N(C)c2cnc(Nc3ccc(C(=O)N[C@H]4CC[C@H](N5CCN(CC6CC6)CC5)CC4)cc3OC)nc2N1C(C)C [volasertib]
In short: as §1

[2] = compound: CC[C@H](C)N1C=C(C2=C(C=C(C=C21)C3=CN=C(C=C3)N4CCNCC4)C(=O)NCC5=C(C=C(NC5=O)C)C)C
In short: as §1

epoxomicin = compound: CC[C@H](C)[C@@H](C(=O)N[C@@H]([C@@H](C)O)C(=O)N[C@@H](CC(C)C)C(=O)[C@]1(CO1)C)NC(=O)[C@H]([C@@H](C)CC)N(C)C(=O)C [epoxomicin]
In short: as §1

[3] = compound: CCn1cc(-c2ccnc3[nH]c(-c4cccc(CN(C)C)c4)cc23)c(-c2ccc(NC(=O)N(C)C)cc2)n1
In short: as §1

[4] = compound: CN(C)CC(=O)Nc1ccc2[nH]c(=O)c3ccccc3c2c1
In short: as §1

[5] = compound: CN1C2=C(C3=C1C(=O)N(N=C3)CC4=CC(=CC=C4)N)SC(=C2)S(=O)C
In short: as §1

[6] = compound: CN1CCC(CNc2ccc3ncc(-c4cccc(OC(F)(F)F)c4)n3n2)CC1
In short: as §1

[7] = compound: CCn1c(C(=O)N(C2CC2)C2CC2)cc2c3c(ncn3C)c(Nc3cc(C)n(C)n3)nc21
In short: as §1

rosiglitazone = compound: CN(CCOC1=CC=C(C=C1)C[C@H]2C(=O)NC(=O)S2)C3=CC=CC=N3 (racemic) [rosiglitazone]
In short: as §1

Target	log2 fold change [1]	log2 fold change (volasertib)	log2 fold change [2]	log2 fold change (epoxomicin)	log2 fold change [3]	log2 fold change [4]	log2 fold change [5]	log2 fold change [6]	log2 fold change [7]	log2 fold change (rosiglitazone)
ELOVL5 isoform 2 (UniProt Q9NYP7)	inactive: -0.227	inactive: -0.164	inactive: 0.026	inactive: -0.034	inactive: -0.206	inactive: 0.021	inactive: -0.044	active: -0.691		
ENTPD5 (UniProt O75356)	inactive: 0.035	inactive: -0.013	inactive: 0.017	inactive: 0.003		inactive: -0.069	inactive: -0.011		inactive: 0.04	inactive: 0.053
EEF1D isoform 2 (UniProt P29692)	inactive: -0.089	active: -0.336	inactive: -0.001	inactive: 0.008	inactive: 0.05	inactive: -0.022	inactive: 0.015	inactive: -0.039		
EMC4 (UniProt Q5J8M3)	inactive: -0.029	inactive: -0.032	inactive: -0.02	inactive: 0.128	inactive: -0.024	inactive: 0.037	inactive: -0.062	inactive: 0.055	inactive: 0.02	inactive: 0.036
EIF2B2 (UniProt P49770)	inactive: -0.007	inactive: 0.08	inactive: -0.015	inactive: 0.033	inactive: -0.078	inactive: 0.013	inactive: -0.036	inactive: 0.142	inactive: 0.013	inactive: -0.004
ELP5 isoform 4 (UniProt Q8TE02)	inactive: 0.085	inactive: 0.102	inactive: -0.01	inactive: -0.019	inactive: 0.001	inactive: -0.04	inactive: -0.042	inactive: 0.029	inactive: 0.056	inactive: -0.025
EEF1A1P5 (UniProt Q5VTE0)	inactive: -0.001	inactive: 0.051	inactive: -0.022	inactive: 0.047	inactive: -0.007	inactive: -0.013	inactive: -0.025	inactive: -0.078	inactive: -0.003	inactive: 0.054
ENDOD1 (UniProt O94919)	inactive: 0.005	inactive: 0.024	inactive: -0.02	inactive: -0.013	inactive: -0.03	inactive: 0.009	inactive: -0.068	inactive: 0.001	inactive: 0.046	inactive: -0.015
EIF2S1 (UniProt P05198)	inactive: 0.087	inactive: 0.086	inactive: 0.011	inactive: -0.096	inactive: 0.073	inactive: -0.051	inactive: 0.044	inactive: 0.07	inactive: -0.026	inactive: -0.018
EEF1B2 (UniProt P24534)	inactive: -0.171	active: -0.343	inactive: 0.056	inactive: -0.034	inactive: 0.007	inactive: 0.016	inactive: 0.03	inactive: -0.065		
EHD2 (UniProt Q9NZN4)	inactive: -0.073	active: -0.243	inactive: 0.027	inactive: 0.023	inactive: -0.085	inactive: 0.007	inactive: -0.045	inactive: -0.002		
EIF5A isoform 2 (UniProt P63241)	inactive: -0.128	inactive: -0.177	inactive: 0.117	inactive: 0.041	inactive: -0.055	inactive: 0.049	inactive: -0.088	inactive: -0.14	inactive: -0.017	inactive: 0.039
EEFSEC (UniProt P57772)	inactive: -0.176	inactive: -0.31	inactive: 0.015	inactive: -0.04	inactive: -0.112	inactive: 0.02	inactive: 0.086	inactive: -0.107	inactive: -0.042	inactive: 0.021
EIF4A3 (UniProt P38919)	inactive: -0.012	inactive: 0.021	inactive: -0.013	inactive: 0.012	inactive: -0.009	inactive: 0.019	inactive: -0.035	inactive: 0.094	inactive: -0.02	inactive: 0.039
EMC10 (UniProt Q5UCC4)	inactive: -0.035	inactive: 0.023	inactive: 0.004	inactive: 0.012	inactive: -0.055	inactive: 0.041	inactive: -0.064	inactive: 0.052	inactive: 0.018	inactive: -0.014
ELAC1 (UniProt Q9H777)	inactive: -0.067	inactive: 0.055	inactive: 0.046	inactive: -0.002	active: -0.488	inactive: 0	inactive: 0.079	inactive: -0.227		
ENTPD7 (UniProt Q9NQZ7)	inactive: -0.204	inactive: -0.233	inactive: 0.08	inactive: 0.032			inactive: -0.021			

In another format: entries from further up
Target,log2 fold change [1],log2 fold change (volasertib),log2 fold change [2],log2 fold change (epoxomicin),log2 fold change [3],log2 fold change [4],log2 fold change [5],log2 fold change [6],log2 fold change [7],log2 fold change (rosiglitazone)
ELP5 isoform 4 (UniProt Q8TE02),inactive: 0.085,inactive: 0.102,inactive: -0.01,inactive: -0.019,inactive: 0.001,inactive: -0.04,inactive: -0.042,inactive: 0.029,inactive: 0.056,inactive: -0.025
EEF1A1P5 (UniProt Q5VTE0),inactive: -0.001,inactive: 0.051,inactive: -0.022,inactive: 0.047,inactive: -0.007,inactive: -0.013,inactive: -0.025,inactive: -0.078,inactive: -0.003,inactive: 0.054
ENDOD1 (UniProt O94919),inactive: 0.005,inactive: 0.024,inactive: -0.02,inactive: -0.013,inactive: -0.03,inactive: 0.009,inactive: -0.068,inactive: 0.001,inactive: 0.046,inactive: -0.015

(next part)

Target	log2 fold change [1]	log2 fold change (volasertib)	log2 fold change [2]	log2 fold change (epoxomicin)	log2 fold change [3]	log2 fold change [4]	log2 fold change [5]	log2 fold change [6]	log2 fold change [7]	log2 fold change (rosiglitazone)
ELOVL6 (UniProt Q9H5J4)	inactive: 0.096	inactive: -0.068	inactive: -0.139			inactive: 0.036	inactive: -0.045		inactive: -0.046	inactive: 0.013
EEF1G isoform 2 (UniProt P26641)	inactive: -0.164	active: -0.364	inactive: 0.075	inactive: 0.008	inactive: -0.005	inactive: 0.022	inactive: 0.011	inactive: 0.016		
EEF1AKNMT (UniProt Q8N6R0)	inactive: -0.082	active: -0.564	inactive: 0.111	inactive: 0.012	inactive: 0.134	inactive: 0.092	inactive: 0.075	inactive: -0.095		
EPB41, A0A2R8Y6D0	inactive: 0.049	inactive: 0.008	inactive: 0.041		inactive: 0.011	inactive: 0.083		inactive: -0.012	inactive: -0.038	inactive: -0.001
EED, A0A5F9ZI63	inactive: -0.052	inactive: -0.055	inactive: -0.159	inactive: -0.032	inactive: 0.068	inactive: -0.099	inactive: 0.045	inactive: 0.209		
EIF4E3 (UniProt Q8N5X7)	inactive: -0.106								inactive: 0.048	
ELAVL4 (UniProt P26378)	inactive: 0.118		inactive: -0.013		inactive: 0.121			inactive: 0.041		inactive: -0.016
EIF4B (UniProt F8VP89)	inactive: -0.023	inactive: 0.109	inactive: -0.026		inactive: 0.048			inactive: -0.212		inactive: -0.115
EEF1AKMT2 (UniProt Q5JPI9)	inactive: -0.101								inactive: -0.03	inactive: 0.02
EIF4E isoform 2 (UniProt P06730)	inactive: -0.012	inactive: -0.044	inactive: 0.021	inactive: 0.053	inactive: -0.061	inactive: 0.036	inactive: -0.146	inactive: 0.199		
ENTPD4 (UniProt Q9Y227)	inactive: 0.026			inactive: -0.035	inactive: -0.084			inactive: 0.087	inactive: -0.06	inactive: -0.158
EIF4G1 isoform 8 (UniProt Q04637)	inactive: -0.114	inactive: -0.487	inactive: 0.174	inactive: 0.016	inactive: 0.005	inactive: 0.031	inactive: 0.181	inactive: -0.425		
EIF1B (UniProt O60739)	inactive: 0.029			inactive: -0.04					inactive: -0.048	inactive: -0.157
ENKD1 (UniProt Q9H0I2)	inactive: 0.088	inactive: 0.046			inactive: 0.007	inactive: 0.069		inactive: -0.07	inactive: -0.061	
ELOA (UniProt Q14241)	inactive: 0.036			inactive: -0.158	inactive: 0.241			inactive: -0.012		
ELOVL1 (UniProt Q9BW60)	inactive: -0.217	inactive: -0.127	inactive: -0.011	inactive: 0.003	inactive: 0.032	inactive: 0.116	inactive: -0.068	active: -0.691		
EIF2S3 (UniProt P41091)	inactive: 0.076	inactive: 0.073	inactive: 0.026	inactive: -0.144	inactive: 0.055	inactive: -0.034	inactive: 0.068	inactive: 0.049		
